Article PMC7819943, “Rice protein-binding microarrays: a tool to detect cis-acting elements near promoter regions in rice”
This is one part of the list.

Target: T1, OsSMF1 (Oryza sativa, UniProt Q6ZLB0 1-436)
T1 sequence: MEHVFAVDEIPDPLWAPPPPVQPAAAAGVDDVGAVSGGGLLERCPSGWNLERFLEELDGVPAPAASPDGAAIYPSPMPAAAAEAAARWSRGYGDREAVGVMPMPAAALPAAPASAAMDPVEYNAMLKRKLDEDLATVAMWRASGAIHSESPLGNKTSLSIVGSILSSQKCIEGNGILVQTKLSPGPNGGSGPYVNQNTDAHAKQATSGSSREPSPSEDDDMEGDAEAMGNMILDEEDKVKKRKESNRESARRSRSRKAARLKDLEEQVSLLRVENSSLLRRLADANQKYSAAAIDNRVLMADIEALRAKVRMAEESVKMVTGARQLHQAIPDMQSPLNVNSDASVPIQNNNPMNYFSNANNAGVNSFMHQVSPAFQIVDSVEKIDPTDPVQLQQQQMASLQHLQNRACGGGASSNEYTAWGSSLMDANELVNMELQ
Test: protein-binding microarray (RPBM); PBS, 2% BSA, 51.3 ng/ul salmon testes DNA, 50 uM zinc acetate, 200 nM TF, 25 C, 1 h; high values mean tight binding
Conditions: protein: recombinant; tags: N-terminal polyhistidine and DsRed monomer fusion (pET32a); chain copies: 2; label: CyDye5-dUTP incorporated in the synthesized complementary strand; 3' TTTTT single-stranded linker to array surface; dsDNA, one strand shown
Procedure, shortened: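 The binding signal is fluorescence intensity per array feature (arbitrary units). Readings came from an Axon 4000B scanner after a washed, 2% BSA-blocked, double-stranded custom Agilent array had been incubated for 1 h at 25 °C with 200 nM protein and 50 µM zinc acetate. The protein was a Ni–NTA-purified transcription factor fused N-terminally to polyhistidine and DsRed, expressed in E. coli BL21-CodonPlus.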

Sequence	binding signal
CATTCACAACAAGCTCTAGTGATGATAGATGGACATACTGCGGAGTCACCTAGTGCAG	4190 fluorescence intensity (a.u.)
GTTGGTGGTGGTGGTGGTAGCTTTGGGGCGTTTGGCTCGGCGGAGTCACCTAGTGCAG	3670 fluorescence intensity (a.u.)
GATTAATTGATTTATTTCTTTCTGCTTTACCCGGTCGCCACGGAGTCACCTAGTGCAG	19200 fluorescence intensity (a.u.)
TCTTGGACTAATTCGCGAGATGAATCTTTTGAGTCTAATTCGGAGTCACCTAGTGCAG	19600 fluorescence intensity (a.u.)
GTCATATTAGTAATGTGCATCATTCATGTCATAATAATCACGGAGTCACCTAGTGCAG	3250 fluorescence intensity (a.u.)
ACAGTACTTGGCTGTAGCGGGCATCTTGTCCTGGCATGTGCGGAGTCACCTAGTGCAG	3600 fluorescence intensity (a.u.)
CAGATGCTTCGCCGCGCGTGCACACGTGTCGTCGTCGGCGCGGAGTCACCTAGTGCAG	16400 fluorescence intensity (a.u.)
TCGCCGGCGCCAAGTTCGTCGTCACCTCCAATCTCATGCTCGGAGTCACCTAGTGCAG	4960 fluorescence intensity (a.u.)
ATGTCAAGACAACAACAGTTGTAAATGTGATCTGGACATACGGAGTCACCTAGTGCAG	3540 fluorescence intensity (a.u.)
TTTACATGTGTAGATCTAATGATGTGTTAATGCTAGTATACGGAGTCACCTAGTGCAG	4500 fluorescence intensity (a.u.)
TTTATTACGTGAGTAAAATTTTAACTACGTGTACATATAGCGGAGTCACCTAGTGCAG	4180 fluorescence intensity (a.u.)
TATCTGTCCTCTTCGTCATATATAACTCTCTTGACGAACTCGGAGTCACCTAGTGCAG	3210 fluorescence intensity (a.u.)
CCATCCAGTTGTCAAGTTTGACTCGGATTGATGACTGGACCGGAGTCACCTAGTGCAG	9540 fluorescence intensity (a.u.)
CTACCCGATTGCAAGCTCATCGATGTCGATTTCATTCATCCGGAGTCACCTAGTGCAG	3490 fluorescence intensity (a.u.)
CAGTCCACATAACCTGAACCCAGCGTCAATCCGCAAGCAACGGAGTCACCTAGTGCAG	40200 fluorescence intensity (a.u.)
AACCCTTTCCCGCTGCTTCTGTTCGCCGCCGCCGTGCTCCCGGAGTCACCTAGTGCAG	17300 fluorescence intensity (a.u.)
ATTCCATCCGATATGCTTCCTCATCACCTACACGCCCAAACGGAGTCACCTAGTGCAG	3240 fluorescence intensity (a.u.)
ATGCTTAAGTTAGTTTGTTTGGTGTGACGCTGGCAGCTGTCGGAGTCACCTAGTGCAG	5410 fluorescence intensity (a.u.)
GTAATTACAGCTCATGATTTTCTCTCTCTCTCTCTCTCTACGGAGTCACCTAGTGCAG	19500 fluorescence intensity (a.u.)
TGACGACGGCCACCTCTGTTCGATCCACCGCTGACTGGTCCGGAGTCACCTAGTGCAG	4530 fluorescence intensity (a.u.)
GAGATGGTGGTGGCGGCGGGGCACGGCGGGCGGCGGAGGCCGGAGTCACCTAGTGCAG	4390 fluorescence intensity (a.u.)

Three records drawn at random from those above:
Sequence	binding signal
TTTATTACGTGAGTAAAATTTTAACTACGTGTACATATAGCGGAGTCACCTAGTGCAG	4180 fluorescence intensity (a.u.)
AACCCTTTCCCGCTGCTTCTGTTCGCCGCCGCCGTGCTCCCGGAGTCACCTAGTGCAG	17300 fluorescence intensity (a.u.)
TGACGACGGCCACCTCTGTTCGATCCACCGCTGACTGGTCCGGAGTCACCTAGTGCAG	4530 fluorescence intensity (a.u.)

Continuation:

Sequence	binding signal
CAAGAACACAACGAAACAAAGCCACTCCTGACGTCAGCGTCGGAGTCACCTAGTGCAG	19400 fluorescence intensity (a.u.)
TTAATGATTTTATTTGAATGGATCAGGGTCCAATTTGCTGCGGAGTCACCTAGTGCAG	55800 fluorescence intensity (a.u.)
CAAACTCTATGACTTTGCATACTATAGTAATGCAATTAAACGGAGTCACCTAGTGCAG	24600 fluorescence intensity (a.u.)
CAAGGGATTTGTGGAGGGTGGCATCGCGTCCATCGTCGCTCGGAGTCACCTAGTGCAG	3690 fluorescence intensity (a.u.)
CTCACGGTTTAGTTTTAACCACCGACTCTCAAATCTCAATCGGAGTCACCTAGTGCAG	28200 fluorescence intensity (a.u.)
AGGTGGTGTAGCGCGCGCGGGTGGGGTTGGGTTACGTGGTCGGAGTCACCTAGTGCAG	4280 fluorescence intensity (a.u.)
CATGGATGGAGTGGTAGCTACCGCCAGTTGTGTAGTCATGCGGAGTCACCTAGTGCAG	3450 fluorescence intensity (a.u.)
GCTCCATGTGGAGTCACTTAGCGCAGTGTAGCTAGCCATCCGGAGTCACCTAGTGCAG	3560 fluorescence intensity (a.u.)
TCATCGATCGGGATGAAGAGCCACGTGGCTTTCCTCTCGCCGGAGTCACCTAGTGCAG	24200 fluorescence intensity (a.u.)
CTAGGCAATTTTAAGTGTCTCTACGCTATAAAACTCGTGACGGAGTCACCTAGTGCAG	8560 fluorescence intensity (a.u.)
GTGGCAGGCGACGTGGTGGTAGCTCCCCGCCAGCCGCTGCCGGAGTCACCTAGTGCAG	3180 fluorescence intensity (a.u.)
CTACCCTATAGTTAAACAAATAGTTTCACTCATTCTTTCACGGAGTCACCTAGTGCAG	26800 fluorescence intensity (a.u.)
AGCGGCAGCAGCTTCCATGCTTGGCGATTCGATGCCATGTCGGAGTCACCTAGTGCAG	3540 fluorescence intensity (a.u.)
CTGCTGTAATATCTAAGACTATGCAGCTGTCACTGACATGCGGAGTCACCTAGTGCAG	3740 fluorescence intensity (a.u.)
GTGTATTCATGCAGAAATTGATCCAAACCAAAACCAAAAGCGGAGTCACCTAGTGCAG	30400 fluorescence intensity (a.u.)
ATGAGGTCGACGAAGCCAGTGAGATCCCACGGCTTGGAGTCGGAGTCACCTAGTGCAG	36700 fluorescence intensity (a.u.)
AGTTGGTTGGACTTGGAGGTGTCAGCTCAGCTTGGCGCCGCGGAGTCACCTAGTGCAG	3720 fluorescence intensity (a.u.)
GGGTGTTATGAGTTGTGTTTGCTGTAGCTTGTCAGCTGTTCGGAGTCACCTAGTGCAG	3320 fluorescence intensity (a.u.)
CAGAAGGGGAAGCGGCGTTGCGTGGCTGCTGCTTCTTCTTCGGAGTCACCTAGTGCAG	3680 fluorescence intensity (a.u.)
GGCTCGCCGCACACGTGGCGCCACACCATTGGCTCCCGTGCGGAGTCACCTAGTGCAG	22300 fluorescence intensity (a.u.)
GAGTTGAGGGACACGTCATATCTGGTATTGTTGTTCAGGGCGGAGTCACCTAGTGCAG	20000 fluorescence intensity (a.u.)
